{"source": "PubChem BioAssay AID652243 | Drosophila RNAi Screening Center, 2013", "assay": "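Fly regulators of androgen-dependent reporter output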 (primary screen)", "cells": "Drosophila S2R+ cells", "reagent": "long dsRNA against Drosophila genes", "time to read-out": "72 h (48 h, then 24 h hormone)", "conditions": "synthetic androgen R1881 at 10 nM for 24 h", "measurement": "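Per-well raw luminescence of the androgen-driven firefly reporter and of the Renilla control, two replicates each, without normalisation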", "scale": "firefly reporter light: higher = more light from androgen-responsive reporter; Renilla control light: higher = more constitutive control signal (cell number, transfection)", "hit rule": "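Across duplicate plates, a knock-down whose log firefly/Renilla ratio shifted a set fold down or up from the GFP/LacZ control mean was a hit; the downward cut appears as both 1.5 and 3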", "meaning of the calls": "active = hit: reporter lowered or raised; inactive = no hit", "note": "The deposit covers about 24,000 reagents; below is a random part of those with a known target gene and a result. Over the whole deposit, 246 (1%) are marked active. 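Plates not normalised; calls are printed but the firefly/Renilla ratio behind them is not deposited; fold cut for lowering reported inconsistently.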 Raw values are not corrected between plates. The numbers tell different reagents against one gene apart. No sequences are given here. Not given: the amount of reagent."}
{"gene":"CG31099","reagent no.":1,"firefly reporter light, replicate 1":1.03e5,"firefly reporter light, replicate 2":1.61e5,"Renilla control light, replicate 1":2.08e6,"Renilla control light, replicate 2":1.83e6,"call":"inactive"}
{"gene":"CG31099","reagent no.":2,"firefly reporter light, replicate 1":8.29e5,"firefly reporter light, replicate 2":5.69e5,"Renilla control light, replicate 1":1.07e6,"Renilla control light, replicate 2":1.17e6,"call":"inactive"}
{"gene":"Lapsyn","reagent no.":1,"firefly reporter light, replicate 1":8.35e5,"firefly reporter light, replicate 2":5.18e5,"Renilla control light, replicate 1":9.76e5,"Renilla control light, replicate 2":7.52e5,"call":"inactive"}
{"gene":"Rim","reagent no.":1,"firefly reporter light, replicate 1":2.04e5,"firefly reporter light, replicate 2":2.72e5,"Renilla control light, replicate 1":2.25e6,"Renilla control light, replicate 2":2.24e6,"call":"inactive"}
{"gene":"Rim","reagent no.":2,"firefly reporter light, replicate 1":50448,"firefly reporter light, replicate 2":33959,"Renilla control light, replicate 1":4.60e5,"Renilla control light, replicate 2":4.05e5,"call":"inactive"}
{"gene":"Rim","reagent no.":3,"firefly reporter light, replicate 1":1.87e5,"firefly reporter light, replicate 2":1.66e5,"Renilla control light, replicate 1":3.41e6,"Renilla control light, replicate 2":3.46e6,"call":"inactive"}
{"gene":"Rim","reagent no.":4,"firefly reporter light, replicate 1":4.29e5,"firefly reporter light, replicate 2":8.46e5,"Renilla control light, replicate 1":6.56e5,"Renilla control light, replicate 2":1.34e6,"call":"inactive"}
{"gene":"CG15282","reagent no.":1,"firefly reporter light, replicate 1":42840,"firefly reporter light, replicate 2":62802,"Renilla control light, replicate 1":3.39e5,"Renilla control light, replicate 2":4.79e5,"call":"inactive"}
{"gene":"CG15282","reagent no.":2,"firefly reporter light, replicate 1":5.43e5,"firefly reporter light, replicate 2":6.47e5,"Renilla control light, replicate 1":1.13e6,"Renilla control light, replicate 2":1.28e6,"call":"inactive"}
{"gene":"Vps13","reagent no.":1,"firefly reporter light, replicate 1":2.99e5,"firefly reporter light, replicate 2":2.93e5,"Renilla control light, replicate 1":1.37e6,"Renilla control light, replicate 2":1.13e6,"call":"inactive"}
{"gene":"Vps13","reagent no.":2,"firefly reporter light, replicate 1":6.63e5,"firefly reporter light, replicate 2":5.68e5,"Renilla control light, replicate 1":1.15e6,"Renilla control light, replicate 2":1.12e6,"call":"inactive"}
{"gene":"asRNA:CR31845","reagent no.":1,"firefly reporter light, replicate 1":6.97e5,"firefly reporter light, replicate 2":9.81e5,"Renilla control light, replicate 1":2.18e6,"Renilla control light, replicate 2":2.34e6,"call":"inactive"}
{"gene":"numb","reagent no.":1,"firefly reporter light, replicate 1":8.97e5,"firefly reporter light, replicate 2":7.90e5,"Renilla control light, replicate 1":1.87e6,"Renilla control light, replicate 2":1.48e6,"call":"inactive"}

Part of the list above in another layout:
{"gene": "CG31099", "reagent no.": 2, "firefly reporter light, replicate 1": 8.29e5, "firefly reporter light, replicate 2": 5.69e5, "Renilla control light, replicate 1": 1.07e6, "Renilla control light, replicate 2": 1.17e6, "call": "inactive"}
{"gene": "Lapsyn", "reagent no.": 1, "firefly reporter light, replicate 1": 8.35e5, "firefly reporter light, replicate 2": 5.18e5, "Renilla control light, replicate 1": 9.76e5, "Renilla control light, replicate 2": 7.52e5, "call": "inactive"}
{"gene": "Rim", "reagent no.": 1, "firefly reporter light, replicate 1": 2.04e5, "firefly reporter light, replicate 2": 2.72e5, "Renilla control light, replicate 1": 2.25e6, "Renilla control light, replicate 2": 2.24e6, "call": "inactive"}

The listing continues.
{"gene":"CG7639","reagent no.":1,"firefly reporter light, replicate 1":31085,"firefly reporter light, replicate 2":56669,"Renilla control light, replicate 1":8.23e5,"Renilla control light, replicate 2":8.23e5,"call":"inactive"}
{"gene":"Eig71Ef","reagent no.":1,"firefly reporter light, replicate 1":3.39e5,"firefly reporter light, replicate 2":3.46e5,"Renilla control light, replicate 1":2.62e6,"Renilla control light, replicate 2":2.73e6,"call":"inactive"}
{"gene":"CG8642","reagent no.":1,"firefly reporter light, replicate 1":3.67e5,"firefly reporter light, replicate 2":2.27e5,"Renilla control light, replicate 1":2.34e6,"Renilla control light, replicate 2":1.83e6,"call":"inactive"}
{"gene":"CG5618","reagent no.":1,"firefly reporter light, replicate 1":41693,"firefly reporter light, replicate 2":49962,"Renilla control light, replicate 1":3.52e5,"Renilla control light, replicate 2":4.27e5,"call":"inactive"}
{"gene":"CG5618","reagent no.":2,"firefly reporter light, replicate 1":5.26e5,"firefly reporter light, replicate 2":4.85e5,"Renilla control light, replicate 1":9.20e5,"Renilla control light, replicate 2":8.92e5,"call":"inactive"}
{"gene":"edl","reagent no.":1,"firefly reporter light, replicate 1":1.03e6,"firefly reporter light, replicate 2":1.29e6,"Renilla control light, replicate 1":1.96e6,"Renilla control light, replicate 2":1.85e6,"call":"inactive"}
{"gene":"edl","reagent no.":2,"firefly reporter light, replicate 1":8.11e5,"firefly reporter light, replicate 2":5.70e5,"Renilla control light, replicate 1":1.80e6,"Renilla control light, replicate 2":1.55e6,"call":"inactive"}
{"gene":"CG16739","reagent no.":1,"firefly reporter light, replicate 1":60703,"firefly reporter light, replicate 2":75603,"Renilla control light, replicate 1":1.04e6,"Renilla control light, replicate 2":9.80e5,"call":"inactive"}
